# Assay results reported in the supplement of paper PMC8728848.
# The other results are listed elsewhere or left out.
# B1: TAL6-6LysM (Trichoderma atroviride) (protein)
# chain: AASKLGVPQPAQRDQVNCQLYAVQPNDNCIDISSKNNITYAQLLSWNPSLSSTCSNLASLNSSSICVSNPKGTFSISSNTVGATDIATTTAPVPSPTLDQTTSRCAKYYQVSDGDDCSHLTAQFAITLKDFIFLNSEVWQNCTNLELGYYYCVEPVGYISTYPGYLPTATTKPFNQTSATSLPYDGDPWARFSSNSSVIPIANGTRVDCYSYVYVKNLTENLFADCWNMASMYEITREELVLWNPSLGNDGSSGSNLSGAEASQVASSIAIPTTAPSSITTNLYTYPCTVAANISYCVALVSSTGALPTNTAPPGPHASGEISNCTAWFAPEAYDTCKSILDIFEMSFANFYKMNPSVGPDCSGLAVGTNYCVSTYPNGEDPNDDWDGDDSIPSISPTGIITPTPTQSGMVSNCNKFYDVHSNDGCSAIASSQHVDLSSLYKWNPAIKTDCSGLQASVYVCIGILTTSMSTTSKLPTTTSKPSTTSKPPTGITTPTPTQSGMVKNCNKFYDVHSGDGCSAIASSQKVNLSSFYLWNPAVKTDCSGLQASVFVCIGTLTTSMSTTTSKLPTTTSKPSTTSKPPTGIITPTPTQNGMVKNCNKFYDVHSGDGCSAIASSQKVNLSSFYLWNPAVKTDCSGLQASVFVCVGTATTTTAAGITTPTPTQSGMVSGCNKFYDVHAGDGCSAIASSQKIALSSLYKWNPAVKTDCSGLQASVYICIGVGNAAAARVTGAAASFLEQKLISEEDLNSAVDHHHHHH
# Experiments:
# Assay in all cases: glycan array binding signal (z-score within array); higher = stronger binding
# Settings in all cases: glycan notation: IUPAC condensed, linker removed
# [1] = biological target: Man(a1-2)Man(a1-3)[Man(a1-2)Man(a1-6)]Man(a1-6)[Man(a1-2)Man(a1-2)Man(a1-3)]Man
# Procedure, shortened: (§1)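 Glycan array data came from 3228 arrays in the Consortium for Functional Glycomics database, and only arrays with an available protein sequence were kept. Glycan names were put into IUPAC-condensed notation, and columns mapping to the same glycan were averaged. The binding signal is a within-array Z-score, averaged across arrays of one protein sequence run at different concentrations or buffers and across linkers. A negative Z-score can be read as non-binding.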
# [2] = biological target: Man(a1-2)Man(a1-3)[Man(a1-2)Man(a1-6)]Man(a1-6)[Man(a1-2)Man(a1-2)Man(a1-3)]Man(b1-4)GlcNAc(b1-4)GlcNAc
# Procedure, shortened: as §1
# [3] = biological target: Man(a1-2)Man(a1-3)[Man(a1-6)]Man(a1-6)[Man(a1-2)Man(a1-3)]Man(b1-4)GlcNAc(b1-4)GlcNAc
# Procedure, shortened: as §1
# [4] = biological target: Man(a1-2)Man(a1-6)[Man(a1-3)]Man(a1-6)[Man(a1-2)Man(a1-2)Man(a1-3)]Man
# Procedure, shortened: as §1
# [5] = biological target: Man(a1-2)Man(a1-6)[Man(a1-3)]Man(a1-6)[Man(a1-2)Man(a1-2)Man(a1-3)]Man(b1-4)GlcNAc(b1-4)GlcNAc
# Procedure, shortened: as §1
# Man(a1-3)[Man(a1-6)]Man = biological target: Man(a1-3)[Man(a1-6)]Man
# Procedure, shortened: as §1
# [6] = biological target: Man(a1-3)[Man(a1-6)]Man(a1-6)[Man(a1-2)Man(a1-3)]Man(b1-4)GlcNAc(b1-4)GlcNAc
# Procedure, shortened: as §1
# [7] = biological target: Man(a1-3)[Man(a1-6)]Man(a1-6)[Man(a1-3)]Man
# Procedure, shortened: as §1
# [8] = biological target: Man(a1-3)[Man(a1-6)]Man(a1-6)[Man(a1-3)]Man(b1-4)GlcNAc(b1-4)GlcNAc
# Procedure, shortened: as §1
# [9] = biological target: Man(a1-3)[Man(a1-6)]Man(b1-4)GlcNAc(b1-4)GlcNAc
# Procedure, shortened: as §1
# [10] = biological target: Man(a1-3)[Man(a1-6)]Man(b1-4)GlcNAc(b1-4)[Fuc(a1-6)]GlcNAc
# Procedure, shortened: as §1
# Man(a1-6)Man = biological target: Man(a1-6)Man
# Procedure, shortened: as §1
# Man(b1-4)GlcNAc = biological target: Man(b1-4)GlcNAc
# Procedure, shortened: as §1
# MurNAc(b1-4)GlcNAc = biological target: MurNAc(b1-4)GlcNAc
# Procedure, shortened: as §1
# Neu5Ac(a2-3)Gal = biological target: Neu5Ac(a2-3)Gal
# Procedure, shortened: as §1
# [11] = biological target: Neu5Ac(a2-3)Gal(b1-3)GalNAc
# Procedure, shortened: as §1
# [12] = biological target: Neu5Ac(a2-3)Gal(b1-3)GalNAc(b1-3)Gal(a1-4)Gal(b1-4)Glc
# Procedure, shortened: as §1
# [13] = biological target: Neu5Ac(a2-3)Gal(b1-3)GalNAc(b1-4)[Neu5Ac(a2-3)]Gal(b1-4)Glc
# Procedure, shortened: as §1
# [14] = biological target: Neu5Ac(a2-3)Gal(b1-3)GalNAc(b1-4)[Neu5Ac(a2-8)Neu5Ac(a2-3)]Gal(b1-4)Glc
# Procedure, shortened: as §1
# [15] = biological target: Neu5Ac(a2-3)Gal(b1-3)GalNAc6S
# Procedure, shortened: as §1
# [16] = biological target: Neu5Ac(a2-3)Gal(b1-3)GlcNAc
# Procedure, shortened: as §1
# [17] = biological target: Neu5Ac(a2-3)Gal(b1-3)GlcNAc(b1-2)Man
# Procedure, shortened: as §1
# [18] = biological target: Neu5Ac(a2-3)Gal(b1-3)GlcNAc(b1-2)Man(a1-3)[GlcNAc(b1-4)][Neu5Ac(a2-3)Gal(b1-3)GlcNAc(b1-2)Man(a1-6)]Man(b1-4)GlcNAc(b1-4)GlcNAc
# Procedure, shortened: as §1
# [19] = biological target: Neu5Ac(a2-3)Gal(b1-3)GlcNAc(b1-2)Man(a1-3)[Neu5Ac(a2-3)Gal(b1-3)GlcNAc(b1-2)Man(a1-6)]Man(b1-4)GlcNAc(b1-4)GlcNAc
# Procedure, shortened: as §1
# [20] = biological target: Neu5Ac(a2-3)Gal(b1-3)GlcNAc(b1-3)Gal(b1-3)GlcNAc
# Procedure, shortened: as §1
# [21] = biological target: Neu5Ac(a2-3)Gal(b1-3)GlcNAc(b1-3)Gal(b1-4)GlcNAc
# Procedure, shortened: as §1
# [22] = biological target: Neu5Ac(a2-3)Gal(b1-3)GlcNAc(b1-3)GalNAc
# Procedure, shortened: as §1
# [23] = biological target: Neu5Ac(a2-3)Gal(b1-3)GlcNAc(b1-4)Gal(b1-4)Glc
# Procedure, shortened: as §1
# [24] = biological target: Neu5Ac(a2-3)Gal(b1-3)GlcNAc(b1-6)GalNAc
# Procedure, shortened: as §1
# [25] = biological target: Neu5Ac(a2-3)Gal(b1-3)GlcNAc6S
# Procedure, shortened: as §1
binder,measurement,setting,value
B1,glycan array binding signal (z-score),[1],-0.014
same,glycan array binding signal (z-score),[2],-0.42
same,glycan array binding signal (z-score),[3],-0.093
same,glycan array binding signal (z-score),[4],0.122
same,glycan array binding signal (z-score),[5],-0.099
same,glycan array binding signal (z-score),Man(a1-3)[Man(a1-6)]Man,-0.021
same,glycan array binding signal (z-score),[6],2.52
same,glycan array binding signal (z-score),[7],-0.726
same,glycan array binding signal (z-score),[8],0.136
same,glycan array binding signal (z-score),[9],-0.274
same,glycan array binding signal (z-score),[10],0.172
same,glycan array binding signal (z-score),Man(a1-6)Man,-0.108
same,glycan array binding signal (z-score),Man(b1-4)GlcNAc,0.53
same,glycan array binding signal (z-score),MurNAc(b1-4)GlcNAc,0.385
same,glycan array binding signal (z-score),Neu5Ac(a2-3)Gal,0.154
same,glycan array binding signal (z-score),[11],-1.43
same,glycan array binding signal (z-score),[12],-0.741
same,glycan array binding signal (z-score),[13],-0.8
same,glycan array binding signal (z-score),[14],-0.659
same,glycan array binding signal (z-score),[15],0.649
same,glycan array binding signal (z-score),[16],-0.539
same,glycan array binding signal (z-score),[17],0.461
same,glycan array binding signal (z-score),[18],0.807
same,glycan array binding signal (z-score),[19],-1.38
same,glycan array binding signal (z-score),[20],1.14
same,glycan array binding signal (z-score),[21],-0.457
same,glycan array binding signal (z-score),[22],2.37
same,glycan array binding signal (z-score),[23],0.273
same,glycan array binding signal (z-score),[24],-0.412
same,glycan array binding signal (z-score),[25],-0.031

# Taken from the results shown (9 entries):
binder,measurement,setting,value
B1,glycan array binding signal (z-score),Man(a1-3)[Man(a1-6)]Man,-0.021
same,glycan array binding signal (z-score),[6],2.52
same,glycan array binding signal (z-score),[7],-0.726
same,glycan array binding signal (z-score),[8],0.136
same,glycan array binding signal (z-score),[9],-0.274
same,glycan array binding signal (z-score),[10],0.172
same,glycan array binding signal (z-score),Man(a1-6)Man,-0.108
same,glycan array binding signal (z-score),Man(b1-4)GlcNAc,0.53
same,glycan array binding signal (z-score),MurNAc(b1-4)GlcNAc,0.385
